Measured values: patent US11031562B2, “Metal complexes” (Merck Patent GmbH, priority 2015, dated 2021)

Test: Solution-processed OLEDs from soluble functional materials: characterisation
Conditions: solution-processed OLED; for LD50 (h) 1000 cd/m^2: lifetime to 50% of starting luminance 1000 cd/m^2
[1] = device type 1 (single emitter), at 1000 cd/m^2
[2] = device type 2, second emitter together with Ir1, at 1000 cd/m^2
[3] = device type 2, second emitter together with Ir1
[4] = device type 2, second emitter together with Ir(L315), at 1000 cd/m^2
[5] = device type 2, second emitter together with Ir110, at 1000 cd/m^2
[6] = device type 2, second emitter together with Ir110
[7] = device type 2, second emitter together with Ir111, at 1000 cd/m^2

For `c1ccc(-c2cc(-c3ccccc3)cc(-c3cccc(-c4cc[c]5c(c4)-c4cccc[n+]4[Ir-3]546([c]5ccc(-c7cccc(-c8cc(-c9ccccc9)cc(-c9ccccc9)c8)c7)cc5-c5cccc[n+]54)[c]4ccc(-c5cccc(-c7cc(-c8ccccc8)cc(-c8ccccc8)c7)c5)cc4-c4cccc[n+]46)c3)c2)cc1` [Ir1, reference compound], the “EQE (%) 1000 cd/m^2” value [1] was 19.4%, the “Voltage (V) 1000 cd/m^2” value [1] was 5.2 V and the “LD50 (h) 1000 cd/m^2” value (device type 1 (single emitter)) was 190000 h.
In the case of `O=C1Oc2cc3cc(c2)OC(=O)c2c[c](c(-c4ccccn4)cc2-c2ccccc2)[Ir]([c]2cc1c(-c1ccccc1)cc2-c1ccccn1)[c]1cc(c(-c2ccccc2)cc1-c1ccccn1)C(=O)O3` [Ir100], the “EQE (%) 1000 cd/m^2” value [1] was 21.1%, the “Voltage (V) 1000 cd/m^2” value [1] was 5.1 V and the “LD50 (h) 1000 cd/m^2” value (device type 1 (single emitter)) was 300000 h.
With `O=C1Oc2ccc3[n+](c2)[Ir-3]245([c]6ccc(-c7cccc8c7oc7ccccc78)cc6-3)[c]3ccc(-c6cccc7c6oc6ccccc67)cc3-c3ccc(c[n+]32)OC(=O)c2cc1cc(c2)C(=O)Oc1ccc([n+]4c1)-c1cc(-c2cccc3c2oc2ccccc23)cc[c]15` [Ir103] the “EQE (%) 1000 cd/m^2” value [1] was 21.1%, the “Voltage (V) 1000 cd/m^2” value [1] was 5.1 V and the “LD50 (h) 1000 cd/m^2” value (device type 1 (single emitter)) was 340000 h. For the same compound, the “EQE (%) 1000 cd/m^2” value [2] was 19.6%, the “Voltage (V) 1000 cd/m^2” value [2] was 5.6 V and the “LD50 (h) 1000 cd/m^2” value [3] was 220000 h.
For `CC(C)Cc1c2c[c]3c4c1ccc1ccc[n+](c14)[Ir-3]3145[c]3cc(c(CC(C)C)c6ccc7ccc[n+]1c7c36)OC(=O)c1cc(cc(c1)C(=O)Oc1c[c]4c3c(ccc4ccc[n+]5c43)c1CC(C)C)C(=O)O2` [Ir104], the “EQE (%) 1000 cd/m^2” value [2] was 19.1%, the “Voltage (V) 1000 cd/m^2” value [2] was 5.6 V and the “LD50 (h) 1000 cd/m^2” value [3] was 220000 h.
In the case of `O=C1Oc2cc3c4[n+](c2)[Ir-3]256([c]7ccc(-c8ccccc8)c(c7-4)CC3)[c]3ccc(-c4ccccc4)c4c3-c3c(cc(c[n+]32)OC(=O)c2cc1cc(c2)C(=O)Oc1cc2c([n+]5c1)-c1[c]6ccc(-c3ccccc3)c1CC2)CC4` [Ir106], the “EQE (%) 1000 cd/m^2” value [2] was 20.7%, the “Voltage (V) 1000 cd/m^2” value [2] was 5.8 V and the “LD50 (h) 1000 cd/m^2” value [3] was 260000 h.
With `CN1C(=O)c2c[c]3c(cc2-c2cccc(-c4ccccc4)c2)-c2cccc[n+]2[Ir-3]3245[c]3cc(c(-c6cccc(-c7ccccc7)c6)cc3-c3cccc[n+]32)C(=O)N(C)c2cc1cc(c2)N(C)C(=O)c1c[c]4c(cc1-c1cccc(-c2ccccc2)c1)-c1cccc[n+]15` [Ir108] the “EQE (%) 1000 cd/m^2” value [1] was 20.9%, the “Voltage (V) 1000 cd/m^2” value [1] was 5.3 V and the “LD50 (h) 1000 cd/m^2” value (device type 1 (single emitter)) was 290000 h.
In the case of `CN1C(=O)c2cc3cc(c2)C(=O)N(C)c2ccc4[n+](c2)[Ir-3]25([c]6ccc(-c7ccc(-c8nc(-c9ccccc9)nc(-c9ccccc9)n8)cc7)cc6-c6ccc1c[n+]62)([c]1ccc(-c2ccc(-c6nc(-c7ccccc7)nc(-c7ccccc7)n6)cc2)cc1-c1ccc(c[n+]15)N(C)C3=O)[c]1ccc(-c2ccc(-c3nc(-c5ccccc5)nc(-c5ccccc5)n3)cc2)cc1-4` [Ir111], the “EQE (%) 1000 cd/m^2” value [1] was 19.5%, the “Voltage (V) 1000 cd/m^2” value [1] was 5.0 V and the “LD50 (h) 1000 cd/m^2” value (device type 1 (single emitter)) was 270000 h.
For `CC(C)(C)CN1C(=O)c2cc3cc(c2)C(=O)N(CC(C)(C)C)c2cc4ccc5c(-c6ccnc7c6oc6ccccc67)cc[c]6c5c4[n+](c2)[Ir-3]624([c]5ccc(-c6ccnc7c6oc6ccccc67)c6ccc7cc1c[n+]2c7c56)[c]1ccc(-c2ccnc5c2oc2ccccc25)c2ccc5cc(c[n+]4c5c12)N(CC(C)(C)C)C3=O` [Ir112], the “EQE (%) 1000 cd/m^2” value [4] was 20.0%, the “Voltage (V) 1000 cd/m^2” value [4] was 5.3 V and the “LD50 (h) 1000 cd/m^2” value (device type 2, second emitter together with Ir(L315)) was 330000 h.
With `Cc1ccc[n+]2c1-c1cc(-c3cccc(CC(C)C)c3)c3c[c]1[Ir-3]2145[c]2cc(c(-c6cccc(CC(C)C)c6)cc2-c2ccc6ccccc6[n+]21)-c1ccccc1-c1cc(cc(c1)-c1ccccc1-c1c[c]4c(cc1-c1cccc(CC(C)C)c1)-c1ccc2ccccc2[n+]15)C(=O)N3C` [Ir114] the “EQE (%) 1000 cd/m^2” value [5] was 19.6%, the “Voltage (V) 1000 cd/m^2” value [5] was 5.3 V and the “LD50 (h) 1000 cd/m^2” value [6] was 330000 h.
For `CN1C(=O)c2cc3cc(c2)-c2ccccc2-c2ccc4[n+](c2)[Ir-3]25([c]6ccc(-c7ccc(-c8cccc9c8oc8ccccc89)cc7)cc6-c6ccc(c[n+]62)-c2ccccc2-3)([c]2ccc(-c3ccc(-c6cccc7c6oc6ccccc67)cc3)cc2-4)[c]2cc3c(cc2-c2ccc1c[n+]25)CCC3` [Ir118], the “EQE (%) 1000 cd/m^2” value [1] was 21.5%, the “Voltage (V) 1000 cd/m^2” value [1] was 5.2 V and the “LD50 (h) 1000 cd/m^2” value (device type 1 (single emitter)) was 290000 h.
With `O=C1Oc2ccc3[c](c2)[Ir-3]245([c]6cc(ccc6-c6ccc(-c7nc(-c8ccccc8)nc(-c8ccccc8)n7)c[n+]62)OC(=O)c2cc1cc(c2)C(=O)Oc1ccc([c]4c1)-c1ccc(-c2nc(-c4ccccc4)nc(-c4ccccc4)n2)c[n+]15)[n+]1cc(-c2nc(-c4ccccc4)nc(-c4ccccc4)n2)ccc1-3` [Ir121] the “EQE (%) 1000 cd/m^2” value [5] was 18.4%, the “Voltage (V) 1000 cd/m^2” value [5] was 5.3 V and the “LD50 (h) 1000 cd/m^2” value [6] was 320000 h.
In the case of `CC(C)(C)c1ccc(-c2nc(-c3ccc(C(C)(C)C)cc3)nc(-c3ccc4[n+](c3)[Ir-3]3567[c]8cc(ccc8-4)OC(=O)c4cc(cc(c4)C(=O)Oc4ccc([c]3c4)-c3ccc(-c4nc(-c8ccc(C(C)(C)C)cc8)nc(-c8ccc(C(C)(C)C)cc8)n4)c[n+]35)C(=O)Oc3ccc([c]6c3)-c3ccc(-c4nc(-c5ccc(C(C)(C)C)cc5)nc(-c5ccc(C(C)(C)C)cc5)n4)c[n+]37)n2)cc1` [Ir122], the “EQE (%) 1000 cd/m^2” value [5] was 18.2%, the “Voltage (V) 1000 cd/m^2” value [5] was 5.4 V and the “LD50 (h) 1000 cd/m^2” value [6] was 310000 h.
In the case of `O=C1Oc2ccc3[c](c2)[Ir-3]245([c]6cc(ccc6-c6ccc(-c7nc(-c8ccccc8)nc(-c8cccc(-c9ccccc9)c8)n7)c[n+]62)OC(=O)c2cc1cc(c2)C(=O)Oc1ccc([c]4c1)-c1ccc(-c2nc(-c4ccccc4)nc(-c4cccc(-c6ccccc6)c4)n2)c[n+]15)[n+]1cc(-c2nc(-c4ccccc4)nc(-c4cccc(-c5ccccc5)c4)n2)ccc1-3` [Ir123], the “EQE (%) 1000 cd/m^2” value [5] was 18.4%, the “Voltage (V) 1000 cd/m^2” value [5] was 5.3 V and the “LD50 (h) 1000 cd/m^2” value [6] was 300000 h.
With `CC(C)(C)c1nc(-c2ccc3[n+](c2)[Ir-3]2456[c]7cc(ccc7-3)OC(=O)c3cc(cc(c3)C(=O)Oc3ccc([c]2c3)-c2ccc(-c3nc(C(C)(C)C)nc(C(C)(C)C)n3)c[n+]24)C(=O)Oc2ccc([c]5c2)-c2ccc(-c3nc(C(C)(C)C)nc(C(C)(C)C)n3)c[n+]26)nc(C(C)(C)C)n1` [Ir124] the “EQE (%) 1000 cd/m^2” value [5] was 18.5%, the “Voltage (V) 1000 cd/m^2” value [5] was 5.3 V and the “LD50 (h) 1000 cd/m^2” value [6] was 310000 h.
In the case of `O=C1Oc2c[c]3c(cc2-c2ccccc2)-c2ccc4c[n+]2[Ir-3]3256[c]3cc7c(-c8ccccc8)cc3-c3ccc(c[n+]32)-c2ccccc2-c2cc(cc(c2)-c2ccccc2-c2ccc([n+]5c2)-c2cc(-c3ccccc3)c(c[c]26)OC(=O)c2cc1cc(c2)C(=O)O7)-c1ccccc1-4` [Ir127], the “EQE (%) 1000 cd/m^2” value [1] was 20.5%, the “Voltage (V) 1000 cd/m^2” value [1] was 5.4 V and the “LD50 (h) 1000 cd/m^2” value (device type 1 (single emitter)) was 380000 h.
With `O=C1Oc2ccc3[n+](c2)[Ir-3]2456[c]7cc(c(-c8cccc(-c9cc(-c%10ccccc%10)cc(-c%10ccccc%10)c9)c8)cc7-3)-c3ccccc3-c3cc7cc(c3)-c3ccccc3-c3c[c]2c(cc3-c2cccc(-c3cc(-c8ccccc8)cc(-c8ccccc8)c3)c2)-c2ccc(c[n+]24)OC(=O)c2cc1cc(c2)C(=O)Oc1ccc([n+]5c1)-c1cc(-c2cccc(-c3cc(-c4ccccc4)cc(-c4ccccc4)c3)c2)c(c[c]16)-c1ccccc1-7` [Ir128] the “EQE (%) 1000 cd/m^2” value [7] was 18.5%, the “Voltage (V) 1000 cd/m^2” value [7] was 5.3 V and the “LD50 (h) 1000 cd/m^2” value (device type 2, second emitter together with Ir111) was 300000 h.
For `O=C1c2cc3cc(c2)C(=O)N(c2cccc(-c4cc(-c5ccccc5)cc(-c5ccccc5)c4)c2)c2ccc4[n+](c2)[Ir-3]2567[c]8cc(c(-c9cccc(-c%10cc(-c%11ccccc%11)cc(-c%11ccccc%11)c%10)c9)cc8-c8ccc(c[n+]82)N1c1cccc(-c2cc(-c8ccccc8)cc(-c8ccccc8)c2)c1)-c1ccccc1-c1cc(cc(c1)-c1ccccc1-c1c[c]5c-4cc1-c1cccc(-c2cc(-c4ccccc4)cc(-c4ccccc4)c2)c1)-c1ccccc1-c1c[c]6c(cc1-c1cccc(-c2cc(-c4ccccc4)cc(-c4ccccc4)c2)c1)-c1ccc(c[n+]17)N(c1cccc(-c2cc(-c4ccccc4)cc(-c4ccccc4)c2)c1)C3=O` [Ir130], the “EQE (%) 1000 cd/m^2” value [1] was 20.0%, the “Voltage (V) 1000 cd/m^2” value [1] was 5.3 V and the “LD50 (h) 1000 cd/m^2” value (device type 1 (single emitter)) was 350000 h.
For `Cc1cc2[n+]3cc1/C=C\c1cc4cc(c1)/C=C\c1c[n+]5c(cc1C)-c1[c](ccc6c1oc1ccccc16)[Ir-3]351([c]3ccccc3-2)[c]2ccccc2-c2cc(C)c(c[n+]21)/C=C\4` [Ir(L18)], the “EQE (%) 1000 cd/m^2” value [1] was 20.7%, the “Voltage (V) 1000 cd/m^2” value [1] was 5.3 V and the “LD50 (h) 1000 cd/m^2” value (device type 1 (single emitter)) was 270000 h.
